According to US20060292657A1, “Phex substrates and methods using same” (priority 2003, published 2006):
At least one read-out could not be matched to a standard name with certainty. Square brackets hold non-standard residues; d marks the D form. Peptide text beside a SMILES is read from it. * marks the point of attachment. EDDnp = O=[N+]([O-])c1ccc(NCCN*)c([N+](=O)[O-])c1; Dnp = O=[N+]([O-])c1ccc(*)c([N+](=O)[O-])c1; 2Abz = Nc1ccccc1C(=O)O

Target: T1, secPHEX (Homo sapiens, UniProt P78562)
T1 construct: pure soluble form of PHEX (secPHEX); made in house
T1 sequence (P78562 46-749 limits assumed): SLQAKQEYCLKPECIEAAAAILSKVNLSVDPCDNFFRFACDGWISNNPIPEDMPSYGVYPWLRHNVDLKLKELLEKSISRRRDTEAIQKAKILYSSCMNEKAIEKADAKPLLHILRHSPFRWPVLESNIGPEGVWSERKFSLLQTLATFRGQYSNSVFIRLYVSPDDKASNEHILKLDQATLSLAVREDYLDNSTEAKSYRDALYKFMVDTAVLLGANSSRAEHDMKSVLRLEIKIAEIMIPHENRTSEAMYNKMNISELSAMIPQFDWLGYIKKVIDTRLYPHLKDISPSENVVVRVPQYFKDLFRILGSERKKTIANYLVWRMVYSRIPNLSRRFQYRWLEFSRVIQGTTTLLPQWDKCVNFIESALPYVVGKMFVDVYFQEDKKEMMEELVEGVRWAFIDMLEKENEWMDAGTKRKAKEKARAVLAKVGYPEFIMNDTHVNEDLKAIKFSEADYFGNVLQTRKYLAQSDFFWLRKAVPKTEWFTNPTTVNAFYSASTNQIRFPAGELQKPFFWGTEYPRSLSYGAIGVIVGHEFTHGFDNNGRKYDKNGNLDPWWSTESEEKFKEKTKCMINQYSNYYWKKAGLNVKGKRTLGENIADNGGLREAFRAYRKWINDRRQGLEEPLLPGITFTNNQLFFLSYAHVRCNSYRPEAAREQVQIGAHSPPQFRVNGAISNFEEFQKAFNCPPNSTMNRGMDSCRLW
Assay: Kinetic parameters for hydrolysis of internally quenched fluorogenic peptides by secPHEX
Assay type: biochemical
Conditions: 37° C., 10 mM Bis-Tris buffer pH 5.5, 150 mM NaCl; ratio of kcat and Km
Procedure: The human recombinant secPHEX was obtained following the procedure previously described (17, WO 00/50580). Purified secPHEX concentration was determined using the Bradford method (DC protein assay kit; Bio-Rad, Mississauga, ON, Canada). Membrane-bound recombinant human PHEX was expressed in LLC-PK1 cells (17, (WO 00/50580)) and membranes were prepared essentially as described by Guo et al. (34). Briefly, transfected cells resuspended in lysis buffer (150 mM NaCl, 20 mM Tris.HCl, pH 7.6) were disrupted by sonication. Cell debris were removed by centrifugation at 300 g for 15 min at 4 °C. […] Insoluble material was pelleted by centrifugation at 10,000 g for 15 min and protein concentrations of the supernatant determined using the Bradford method described above. PHEX amounts were evaluated by immunoblotting as described previously (17). […]
The hydrolysis of the IQFPs, at 37° C., in 10 mM Bit-Tris buffer pH 5.5 (0.35 to 1.0 ml final volume) containing 150 mM NaCl, was continuously followed measuring the fluorescence at γem=420 nm and γex=320 nm in a Hitachi F-2000™ spectrofluorometer. The cuvefte containing the buffer and the substrate was placed in a thermostatically controlled cell compartment for 5 min before the addition of the enzyme and the increase in fluorescence with time was continuously recorded for 5-10 min. […]

Row | Compound | kcat/Km [M⁻¹ s⁻¹]
1 | CC(C)C[C@H](NC(=O)[C@H](Cc1c[nH]cn1)NC(=O)[C@H](CC(=O)O)NC(=O)c1ccccc1N)C(=O)N[C@@H](CO)C(=O)N[C@@H](CC(=O)O)C(=O)N[C@H](C(=O)N[C@@H](CO)C(=O)N[C@H](C(=O)N[C@@H](CCC(N)=O)C(=O)NCCNc1ccc([N+](=O)[O-])cc1[N+](=O)[O-])[C@@H](C)O)[C@@H](C)O [I-Abz-D125-HLS↓DTSTQ-EDDnp, Abz-DHLSDTSTQ-edDnp] (H-[2Abz]DHLSDTSTQ-EDDnp) | 77000
2 | Nc1ccccc1C(=O)NCC(=O)N[C@@H](Cc1ccccc1)C(=O)N[C@@H](CO)C(=O)N[C@@H](CC(=O)O)C(=O)N[C@@H](Cc1ccc(O)cc1)C(=O)N[C@@H](CCCCNc1ccc([N+](=O)[O-])cc1[N+](=O)[O-])C(=O)O [I-Abz-GFS↓DYK(Dnp)-OH, Abz-GFSDYK(Dnp)-OH] (H-[2Abz]GFSDYK(Dnp)-OH) | 166700
